Assay results taken from patent publication US7071231B2, “Naphthalene ureas as glucose uptake enhancers” (Telik, Inc., priority 1999, dated 2006).
Structures can show the parent of a compound that is named as a salt. At least one read-out could not be matched to a standard name with certainty.

Test system: 3T3 L1 fibroblasts
Assay: Glucose transport activity assay (14C-2-deoxy-D-glucose uptake)
Assay type: cell-based
Settings: EC (effective concentration) for increase in glucose transport, 3T3 L1 cells
Experimental: Glucose Transport Activity Assay.
Stimulation of the insulin receptor leads to the transport of glucose from the blood into cells, thus modulating blood glucose levels. 3T3 L1 fibroblasts (ATCC) were grown in Dulbecco's modified Eagle's medium (DMEM) with 10% fetal bovine serum (FBS). The cells were plated at a density of 3×10^4 cells/well in 24-well plates. Two days after confluence was reached, the cells were treated for 3 days with 0.5 mM isobutylmethylxanthine (IBMX), 1 μM dexamethasone, and 1.7 μM insulin. The cells were then transferred to DMEM with 10% FBS and supplemented with 1.7μM insulin for 2 more days. The cells were maintained in DMEM with 10% FBS for an additional 4 days. Finally the cells were serum-starved overnight in 0.1% bovine serum albumin (BSA) in DMEM.
The following day, the medium was replaced with 150 mM NaCl, 1.7 mM KCl, 0.9 mM CaCl2, K2HPO4 (pH 7.4) to which were added either the experimental compounds or their vehicle (DMSO). Insulin or its vehicle (0.01% BSA) was diluted in the assay buffer (containing test compound or vehicle, respectively) to final concentration of 5.6 mM. […] Radioactivity in the lysate was quantified by scintillation counting.
Once ^14C-2-deoxy-D-glucose is transported into the cell, it is not released. Glucose transport is, therefore, proportional to the amount of radioactivity in the lysate. […]

O=C(Nc1ccc2ccc(S(=O)(=O)Nc3cccc(S(=O)(=O)O)c3)cc2c1)Nc1ccc2ccc(S(=O)(=O)Nc3cccc(S(=O)(=O)O)c3)cc2c1 [Compound 13, 3-{[(7-{[N-(7-{[(3-sulfophenyl)amino]sulfonyl}-2-naphthyl)carbamoyl]amino}-2-naphthyl)sulfonyl]amino}benzenesulfonic acid disodium salt]
Concentration (μM) to reach >150% activity of vehicle control: 3.2 µM
